For at least one entry, the source does not settle the construct or the ends of the probe. Tags and fusion partners may be left off the protein sequences shown.

The values below come from patent US20060088535.

Series [1] addresses T1, ApC/EBP (Aplysia californica) (UniProt A0ABM1A6Q8).
T1 sequence (looked up, limits assumed): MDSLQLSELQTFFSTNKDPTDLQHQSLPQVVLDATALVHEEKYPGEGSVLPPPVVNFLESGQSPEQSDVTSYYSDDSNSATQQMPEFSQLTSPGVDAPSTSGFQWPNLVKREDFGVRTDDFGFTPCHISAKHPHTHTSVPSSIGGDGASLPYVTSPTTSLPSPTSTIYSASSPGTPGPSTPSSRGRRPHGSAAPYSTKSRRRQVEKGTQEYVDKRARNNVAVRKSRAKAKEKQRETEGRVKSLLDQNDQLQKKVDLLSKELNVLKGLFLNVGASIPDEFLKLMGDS
In words: SELEX. Conditions: 13 cycles; 150 or 400 mM KCl; present in each of 48 clones; purified recombinant protein.

Series [2] concerns T2, ApCREB-2 (Aplysia californica).
T2 sequence (limits assumed): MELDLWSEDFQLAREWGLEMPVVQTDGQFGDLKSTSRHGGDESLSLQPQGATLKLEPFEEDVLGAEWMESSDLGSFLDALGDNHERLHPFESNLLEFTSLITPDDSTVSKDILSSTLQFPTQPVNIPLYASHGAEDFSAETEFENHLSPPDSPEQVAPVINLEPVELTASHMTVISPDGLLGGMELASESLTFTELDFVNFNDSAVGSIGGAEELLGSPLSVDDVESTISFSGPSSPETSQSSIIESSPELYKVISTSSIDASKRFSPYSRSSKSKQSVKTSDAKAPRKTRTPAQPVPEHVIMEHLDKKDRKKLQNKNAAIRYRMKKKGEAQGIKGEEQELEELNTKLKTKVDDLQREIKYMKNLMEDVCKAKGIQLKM
As to the kind of experiment: SELEX. Conditions: 13 cycles; 150 or 400 mM KCl; present in each of 48 clones; purified recombinant protein; protein details: 6His N-terminal.

Take “ACTATTGCGCAATC (double strand) [BS2 selected sequence]”: in series [1], the selection result is recorded as “selected”.

Turning to “AGTATTGCGTCATC (double strand) [BS1 selected sequence]”, the selection result in series [2] is given as “selected”.
